Data on 1 molecule can be found in patent EP4644420A1 (Unicet Biotech. LLC, dated 2025).

Results are given in words; binding and its absence hold for the method and conditions named. Some results given as binding are weak or reduced against the parent protein; the word gives no strength.

The assay concerns the target T1, B7-H3 on human tumor cells (human) (UniProt Q5ZPR3).
T1 sequence (looked up): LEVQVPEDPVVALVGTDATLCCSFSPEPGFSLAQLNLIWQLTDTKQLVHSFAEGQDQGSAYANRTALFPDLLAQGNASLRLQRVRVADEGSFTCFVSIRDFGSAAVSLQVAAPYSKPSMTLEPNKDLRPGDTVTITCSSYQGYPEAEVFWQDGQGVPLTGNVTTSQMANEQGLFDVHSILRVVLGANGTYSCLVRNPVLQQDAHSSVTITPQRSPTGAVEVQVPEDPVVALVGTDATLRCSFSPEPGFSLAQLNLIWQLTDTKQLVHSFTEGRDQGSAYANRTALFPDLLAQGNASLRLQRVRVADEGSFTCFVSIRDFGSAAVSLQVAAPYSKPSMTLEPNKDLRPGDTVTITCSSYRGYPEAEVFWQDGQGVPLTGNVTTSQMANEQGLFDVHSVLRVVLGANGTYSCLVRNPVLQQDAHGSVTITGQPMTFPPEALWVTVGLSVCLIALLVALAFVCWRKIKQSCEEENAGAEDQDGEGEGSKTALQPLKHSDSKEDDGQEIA
Nature of the assay: flow cytometry on U87 cells, 1 µg antibody per 1e6 cells; no signal on B7-H3 knockout U87.

B1: humanized 2Y31 antibody (antibody, V domains shown)
VH: EVQLVESGGGLVKPGGSLKLSCAASGFAFSRYDMSWVRQSPEKRLEWVATISDDGRHTYDRDSVKGRFTISRDNAKNTLYLQMSSLRSEDTALYYCVRHRAITTARFDYWGQGTTVTVSS
VL: DIVMTQSPSSLSVSLGDTVSITCKASQDIYSNIGWLQQLPGQSFKGLIYHGTNLEDGVPSRFSGSGSGTDYSLTISGLESEDFADYYCLQYVQFPYTFGGGTKLEIKA
As to B1, the binding result was “binds”.
